Experimental data taken from PubChem BioAssay AID588453 (National Center for Advancing Translational Sciences (NCATS), 2011).
Where “and” joins values, the source holds several entries; their conditions need not be identical. Equal entries are not always repeated. About 4,000 (1%) of roughly 390,000 compounds were called active. The source calls these results inconclusive, neither active nor inactive. Calls follow the shape of the dose curve; as a rule, active = well fitted inhibition curve with a large enough effect; inconclusive = small, poorly fitted or top-dose-only effect; inactive = no such curve, though single readings can be large or run the other way.

Protein sequences, listed by entry. Tags and fused reporters are not part of them.
UniProt O89049, whole entry: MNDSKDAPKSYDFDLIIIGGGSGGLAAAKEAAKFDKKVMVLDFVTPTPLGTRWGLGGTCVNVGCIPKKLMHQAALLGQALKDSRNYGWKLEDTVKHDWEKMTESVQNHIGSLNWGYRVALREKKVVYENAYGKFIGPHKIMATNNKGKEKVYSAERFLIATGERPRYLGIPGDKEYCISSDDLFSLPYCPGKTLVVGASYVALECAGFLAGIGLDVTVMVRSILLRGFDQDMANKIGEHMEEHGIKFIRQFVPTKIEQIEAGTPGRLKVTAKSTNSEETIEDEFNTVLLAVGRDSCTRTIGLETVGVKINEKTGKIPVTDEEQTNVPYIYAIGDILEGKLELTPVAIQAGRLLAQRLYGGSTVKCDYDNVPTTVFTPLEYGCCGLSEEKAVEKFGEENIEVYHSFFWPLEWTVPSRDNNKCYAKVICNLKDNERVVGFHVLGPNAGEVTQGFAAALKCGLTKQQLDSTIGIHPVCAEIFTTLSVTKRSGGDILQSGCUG

What follows are compounds tested against Thioredoxin reductase 1, cytoplasmic (Rattus norvegicus) (UniProt O89049) (assay: qHTS Assay for Inhibitors of Mammalian Selenoprotein Thioredoxin Reductase 1 (TrxR1): qHTS). Conditions: recombinant rTrxR1, NADPH fluorescence consumption, selenite substrate.
Also: nearly all actives have a fitted effect of over 65% in size.
Potency is read from the fitted curve at half-maximal effect.

**Q.** How did the Potency turn out when `CP(=O)(Nc1ccc(SC(F)(F)F)cc1)Oc1ccc(F)cc1` (centres undefined) was run?
**A.** inconclusive: 22.4 µM

**Q.** Which Potency does the source give for `Cc1c([N+](=O)[O-])cc([N+](=O)[O-])c(Br)c1[N+](=O)[O-]` here?
**A.** inconclusive: 20 µM

**Q.** With `N#[O+].[C-]#N.[C-]#N.[C-]#N.[C-]#N.[C-]#N.[Fe+2].[Na+].[Na+]` as the compound, how does the Potency read?
**A.** inconclusive: 26.7 µM and inconclusive: 16.8 µM

**Q.** Which Potency does the source give for `O=[N+]([O-])c1cc([N+](=O)[O-])c(-n2nnc3ccccc32)c([N+](=O)[O-])c1` here?
**A.** inconclusive: 89.1 µM
